Experimental data: patent publication US20080286287A1
These are yes or no findings as the source states them, for the method shown. Some results given as binding are weak or reduced against the parent protein; the word gives no strength.

Sequences of proteins named here, by UniProt entry; tags and fusion partners are left off. Residues count along the entry.
UniProt P05019, residues 49-118: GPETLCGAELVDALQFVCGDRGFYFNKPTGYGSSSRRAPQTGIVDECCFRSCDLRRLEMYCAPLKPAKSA

Molecular target: Human-IGF-I (human) (UniProt P05019)
Test: 125I-IGF-I binding and DSS cross-linking to rat olfactory bulb membranes, SDS-PAGE autoradiography

binding: binds
B1: rat IGFBP-2 associated with rat brain olfactory bulb membranes (protein, UniProt P12843 35-304, looked up)
chain: EVLFRCPPCTPERLAACGPPPDAPCAELVREPGCGCCSVCARQEGEACGVYIPRCAQTLRCYPNPGSELPLKALVTGAGTCEKRRVGATPQQVADSEDDHSEGGLVENHVDGTMNMLGGSSAGRKPPKSGMKELAVFREKVNEQHRQMGKGAKHLSLEEPKKLRPPPARTPCQQELDQVLERISTMRLPDDRGPLEHLYSLHIPNCDKHGLYNLKQCKMSLNGQRGECWCVNPNTGKPIQGAPTIRGDPECHLFYNEQQENDGAHAQRVQ
